From ChEMBL document CHEMBL3988442, “University of Dundee, Small-Polar-MMV Screening Library” (2021).

Results are given as percent effect.
The record does not define 0% and 100%; most values in the screen are far below 50% and negative numbers occur (in some assays of this library far below -100).
The compounds are a random part of those screened.
A dash means the value is not listed here; it may have been measured.

Mtb growth Cornell: 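Whole-cell assay for inhibitors of Mycobacterium tuberculosis growth, labelled Cornell in the record; the read-out is not stated. The concentration is filed as 10 mM, unlikely as a test dose, so the dose is not known. The record gives no direction; compounds strong in two other growth screens of this library score well above the rest, so higher reads as stronger inhibition. Of about 53,000 compounds tested this way, about 900 (1.7%) reached 50% or more in at least one test.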
Mtb heat-shock: 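Assay on Mycobacterium tuberculosis, filed only as a heat shock assay from Cornell; the read-out is not stated. The concentration is filed as 10 mM, unlikely as a test dose, so the dose is not known. Higher reads as stronger inhibition (inferred: compounds with an IC50 in retests scored well above the rest). Size under these conditions: about 69,000 compounds, about 930 of them at 50% or above in at least one test.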

| SMILES | Mtb growth Cornell | Mtb heat-shock |
|---|---|---|
| `COc1ccc(C(NCc2cccc(O)c2)C2CC2)cc1` (configuration not stated) | -12.46% | 3.49% |
| `CN1CCOC(CN(C(=O)CN2CCCC2=O)c2nccs2)C1` (configuration not stated) | -25.76% | -29.52% |
| `COc1ccccc1N1CCN(C(=O)Cn2nc(C)cc2C)CC1(C)C` | 13.69% | 8.115% |
| `Cc1cc(Cl)ccc1NCc1ccc(C(=O)N(C)C)[nH]1` | - | -13.05% |
| `CN1CCC/C1=N\S(=O)(=O)c1ccc(NC(=O)c2ccc(F)cc2)cc1` | -1.64% | 18.18% |
| `CCSCCC(=O)NS(=O)(=O)c1ccc2c(c1)OCCO2` | 11.17% | 44.51% |
| `COc1cc(Cl)c(NCc2c(C)noc2C)cc1OC` | 25.29% | -26.21% |
| `O=C(Nc1ccccc1)N1CCC2(CC(=O)N(c3ccsc3)C2)C1` (configuration not stated) | 42.75% | 3.739% |
| `CN1CC(=O)N(c2ccccc2)CC12CCN(Cc1cccnc1)C2.O=C(O)C(F)(F)F.O=C(O)C(F)(F)F.O=C(O)C(F)(F)F` (configuration not stated) | 20.68% | -26.98% |
| `CC[S+](CC)[c-]1c(=O)[nH]c(=O)n(CCc2ccc(F)cc2)c1=O` | 12.77% | -9.226% |
| `CCn1cnnc1CN(C)C(=O)c1cc(COc2cccc(F)c2)[nH]n1` | - | -173.2% |
| `CCn1cc(S(=O)(=O)NC2CCCN(CCCc3ccccc3)C2)cn1` (configuration not stated) | 14.22% | -8.307% |
| `Cc1cnn(CC2CCCN2Cc2noc(C(C)(C)C)n2)c1` (configuration not stated) | 7.428% | -5.071% |
| `O=C(O)C(F)(F)F.[H][C@]12CN(CCc3ccccc3)C[C@@]1([H])S(=O)(=O)CC[C@@H]2C(=O)N1CCCC1` | 30.01% | -18.74% |
| `COc1ccccc1C(=O)NCC(c1cccn1C)N1CCOCC1` (configuration not stated) | - | -3.25% |
| `COc1ccc2[nH]cc(CCNC(=O)C3CCCN(C(C)=O)C3)c2c1` (configuration not stated) | 33.13% | -1.321% |
| `CCCN1CCC(Cc2nc(CN3CCN(C)CC3)no2)CC1` | 11.77% | -19.26% |
| `CC(=O)N[C@@H]1CN(Cc2nnc(-c3ccccc3)o2)C[C@H]1C(C)C` | - | -12.85% |
| `Cc1noc(C)c1CCc1nc(C2CCOC2)no1` (configuration not stated) | -7.866% | -8.322% |
| `CC(C)n1c(C2CCCN(CC(=O)NC3CC3)C2)nc2ccccc21` (configuration not stated) | - | -32.24% |
| `Cn1ccnc1CN1CCC(Cn2cc(-c3ccncc3)nn2)CC1` | -3.295% | -24.3% |
| `CCc1nc(C(=O)N2CCN(C)CC2C)nn1-c1ccccc1Cl` (configuration not stated) | -6.123% | -25.44% |
| `O=C(O)C(F)(F)F.[H][C@@]12C[C@@H](c3nc(C)no3)O[C@]1([H])CN(C(=O)C1CCN(C)CC1)C2` | -33.66% | -8.053% |
| `NCC(CO)Cc1cccc(OC(F)(F)F)c1` (configuration not stated) | -1.015% | -11.48% |
| `COCC(=O)N1CCCC1(C)c1nc(C)cc(O)n1` (configuration not stated) | -29.32% | 2.533% |
| `COc1ccccc1-n1nc(-c2ccco2)n(CC(=O)NC(C)C)c1=O` | -35.56% | 18.57% |
| `CC(=O)NCCc1ccc(S(=O)(=O)N(CC(C)C)C(C)C)s1` | -26.31% | -4.459% |
| `Cc1cc(C)c(S(=O)(=O)Nc2c(C)noc2C)cc1C(=O)O` | - | -6.39% |
| `O=C(O)C(F)(F)F.O=C(O)C(F)(F)F.[H][C@@]12CN(C(=O)c3ccoc3C)C[C@]1([H])OCCN2CCN1CCCC1` | 15.42% | -8.029% |
| `CC(C)(C)n1ncc2c1CCCC2NCc1ccsc1` (configuration not stated) | - | -3.094% |
| `O=C(O)C(F)(F)F.[H][C@@]12CCN(CC(C)C)[C@@]1([H])CCN2C(=O)N1CCCC1` | 10.74% | -24.09% |
| `Cc1noc(C)c1CN(C)C(=O)CN1CC(c2ccccc2)CC1=O` (configuration not stated) | - | 2.772% |
| `Cc1ccsc1CN(Cc1ncccc1C(=O)O)C1CC1` | 23.48% | -45.09% |
| `O=C(Nc1ccc(Cl)cn1)C1CCCN(CCc2ccncc2)C1` (configuration not stated) | 4.726% | 7.082% |
| `C[S+]([O-])c1ccc(NC(=O)Cc2cccnc2)cc1F` (configuration not stated) | -12.65% | 8.81% |
| `Cc1cc(C)n(CC(C)NC(=O)C2(c3ccccc3F)CC2)n1` (configuration not stated) | - | -6.828% |
| `Cc1ccc(C(NCC(=O)N2CCNC(=O)C2)C(F)(F)F)cc1` (configuration not stated) | 1.191% | 11.37% |
| `COCC1CN(Cc2cccnc2OC)Cc2cnn(C)c21` (configuration not stated) | -12.5% | 7.501% |
| `NC(=O)c1ccc(C(=O)N(Cc2ccc(O)cc2)CC2CC2)cc1` | -5.401% | -11.97% |
| `CN(Cc1nncn1C)C(=O)c1cc(COc2ccccc2F)[nH]n1` | - | -134.9% |
| `[H][C@@]12COC[C@]1(C(=O)NCCOC)CN(C1CCOCC1)C2` | -23.71% | -18.39% |
| `Oc1ccccc1N1CCN(c2ncnc3sc4c(c23)CCNC4)CC1` | - | -21.81% |
| `Cc1cc(CS(=O)(=O)CC(=O)N2c3ccccc3CC2C)no1` (configuration not stated) | - | -3.838% |
| `Cc1cc(NC2CCc3nc(C(C)C)nn3C2)n2ncnc2n1` (configuration not stated) | -9.225% | -9.906% |
| `CCn1ccnc1-c1nccn1-c1ccccc1CN1CCOCC1` | -4.851% | 11.35% |
| `Cc1nn(C)c2c(N3CCN(C(=O)C4CCC4)CC3)ncnc12` | - | -2.005% |
| `O=C(O)C(F)(F)F.O=C(O)C(F)(F)F.[H][C@@]12COC[C@]1(CNC(=O)c1ccno1)CN(Cc1cccnc1)C2` | - | 3.239% |
| `Cc1nc(N2CCOCC2)nc(C)c1NS(=O)(=O)c1ccccc1` | 18.03% | 4.05% |
| `CC(C)Cc1nc(CN2CCc3onc(-c4cccc(F)c4)c3C2)no1` | -27.86% | 52.2% |
| `CCc1nc(C2CCCN2CC(=O)Nc2cc(C)on2)no1` (configuration not stated) | -34.6% | -11.29% |
| `Cn1ncc2c(N3CCCC4(CCNC4)C3)nc(C(C)(C)C)nc21` (configuration not stated) | 15.57% | 40.33% |
| `CCc1ccc(C(=O)NCc2ccnc(N3CCN(C)CC3)c2)o1` | - | -6.697% |
| `Cc1nc(C)c(C(=O)Nc2cccc(CN3CCC(CO)CC3)c2)o1` | 7.518% | -5.199% |
| `O=C(NCC1CC1)N1CCN(Cc2ccc3c(c2)OCCO3)CC1` | 39.46% | 40.79% |
| `CNc1cc(C2CCCN2S(=O)(=O)c2cccc(F)c2)ccn1` (configuration not stated) | -53.51% | -23.94% |
| `O=C(c1ccc2[nH]ccc2c1)N1Cc2nc(CN3CCCC3)oc2C1` | -42.37% | -10.67% |
| `CS(=O)(=O)NCC1CCCN(C(=O)c2ccc(Cl)o2)C1` (configuration not stated) | 33.86% | 28.57% |
| `Cc1ncsc1CN1CCC2(CC1)CC(=O)N(Cc1ccc(Cl)cc1)C2` | - | -2.435% |
| `O=C(CCCn1cncn1)NC1(c2ccccc2)CCC1` | 11.17% | 16.03% |
| `CC1(c2ncc(CN(CC(=O)O)Cc3ccccc3)cn2)CCCCO1` (configuration not stated) | 27.37% | -5.533% |
| `O=C(c1ccsc1)N1CCc2c(CN3CCCC3)n[nH]c2C1` | -1.791% | -33.62% |
| `CC(=O)N[C@@H]1CN(c2nc(CO)cs2)C[C@H]1c1ccc(C)o1` | 3.039% | 10.25% |
| `CCc1cc(=O)[nH]c2nnc(SCC(=O)OC)n12` | -7.031% | -15.61% |
| `COCCN1CCC2(COCc3cnc(N4CCOCC4)nc32)C1.O=C(O)C(F)(F)F` (configuration not stated) | - | -9.515% |
| `Cc1cccc(C(=O)Nc2cccc3c2C(=O)NC3)n1` | -19.26% | -8.194% |

Once more, the final 5:

{"smiles": "O=C(c1ccsc1)N1CCc2c(CN3CCCC3)n[nH]c2C1", "Mtb growth Cornell": -1.791, "Mtb heat-shock": -33.62}
{"smiles": "CC(=O)N[C@@H]1CN(c2nc(CO)cs2)C[C@H]1c1ccc(C)o1", "Mtb growth Cornell": 3.039, "Mtb heat-shock": 10.25}
{"smiles": "CCc1cc(=O)[nH]c2nnc(SCC(=O)OC)n12", "Mtb growth Cornell": -7.031, "Mtb heat-shock": -15.61}
{"smiles": "COCCN1CCC2(COCc3cnc(N4CCOCC4)nc32)C1.O=C(O)C(F)(F)F", "stereo": "configuration not stated", "Mtb heat-shock": -9.515}
{"smiles": "Cc1cccc(C(=O)Nc2cccc3c2C(=O)NC3)n1", "Mtb growth Cornell": -19.26, "Mtb heat-shock": -8.194}